For part of these data: For expression read-outs the peptide stands for its source gene, whose mRNA was measured; the gene is not named for every peptide.
Columns and labels:
Design in all cases: species or system human
[1] = tested on: HLA-A*24 molecules of primary tumors; assay: Identification and relative LC-MS quantitation of HLA-A*24 tumor-associated peptides presented on tissue samples (XPRESIDENT presentation profiles); settings: Table 9A: selected HLA-A*24-binding tumor-associated peptides; cancer entities on which the peptide was found presented
[2] = tested on: source genes of selected peptides; assay: Expression profiling of source genes by in-house RNAseq, tumor vs normal tissues (target coverage)
[3] = tested on: source genes of selected peptides; assay: Target coverage of source genes in tumor entities based on TCGA Research Network data; settings: over-expressed = more than 2-fold above the highest 75% percentile of normal organs; for Target coverage, over-expression category of source gene, BLCA (N = 408): Bladder urothelial carcinoma; for Target coverage, over-expression category of source gene, CESC (N = 307): Cervical squamous cell carcinoma and endocervical adenocarcinoma; for Target coverage, over-expression category of source gene, HNSC (N = 521): Head and neck squamous cell carcinoma; for Target coverage, over-expression category of source gene, DLBC (N = 48): Lymphoid neoplasm diffuse large B-cell lymphoma

363: peptide found in SLC7A11 (gene looked up) (SYAELGTTI; listed as Homo sapiens) [compound 363]
ENTITIES [1]: GB, NSCLC, GC | Target coverage, over-expression of source gene, AML ([2]; AML (N = 7), share of tumors with more than 1.5-fold higher expression than highest relevant normal tissue, in-house RNASeq): I (<19% over-expression = I) | Target coverage, over-expression of source gene, BRCA ([2]; BRCA (N = 10), share of tumors with more than 1.5-fold higher expression than highest relevant normal tissue, in-house RNASeq): I (<19% over-expression = I) | Target coverage, over-expression of source gene, CLL ([2]; CLL (N = 10), share of tumors with more than 1.5-fold higher expression than highest relevant normal tissue, in-house RNASeq): I (<19% over-expression = I) | Target coverage, over-expression of source gene, CRC ([2]; CRC (N = 20), share of tumors with more than 1.5-fold higher expression than highest relevant normal tissue, in-house RNASeq): I (<19% over-expression = I) | Target coverage, over-expression of source gene, GB ([2]; GB (N = 24), share of tumors with more than 1.5-fold higher expression than highest relevant normal tissue, in-house RNASeq): II (20-49% = II) | Target coverage, over-expression of source gene, HCC ([2]; HCC (N = 15), share of tumors with more than 1.5-fold higher expression than highest relevant normal tissue, in-house RNASeq): I (<19% over-expression = I) | Target coverage, over-expression of source gene, OC ([2]; OC (N = 12), share of tumors with more than 1.5-fold higher expression than highest relevant normal tissue, in-house RNASeq): I (<19% over-expression = I) | Target coverage, over-expression of source gene, OSCAR ([2]; OSCAR (N = 11), share of tumors with more than 1.5-fold higher expression than highest relevant normal tissue, in-house RNASeq): II (20-49% = II) | Target coverage, over-expression of source gene, PC ([2]; PC (N = 26), share of tumors with more than 1.5-fold higher expression than highest relevant normal tissue, in-house RNASeq): I (<19% over-expression = I) | Target coverage, over-expression of source gene, RCC ([2]; RCC (N = 10), share of tumors with more than 1.5-fold higher expression than highest relevant normal tissue, in-house RNASeq): I (<19% over-expression = I) | Target coverage, over-expression of source gene, SCLC ([2]; SCLC (N = 10), share of tumors with more than 1.5-fold higher expression than highest relevant normal tissue, in-house RNASeq): I (<19% over-expression = I) | Target coverage for source genes of selected peptides, GBC_CCC (N = 10) ([2]; gallbladder adenocarcinoma and cholangiocarcinoma, share of tumors with more than 1.5-fold higher expression than the highest-expressing relevant normal tissue, in-house RNAseq): I (<19% over-expression = I) | Target coverage for source genes of selected peptides, GC (N = 11) ([2]; gastric cancer, share of tumors with more than 1.5-fold higher expression than the highest-expressing relevant normal tissue, in-house RNAseq): I (<19% over-expression = I) | Target coverage for source genes of selected peptides, HNSCC (N = 10) ([2]; head and neck small cell carcinoma, share of tumors with more than 1.5-fold higher expression than the highest-expressing relevant normal tissue, in-house RNAseq): I (<19% over-expression = I) | Target coverage for source genes of selected peptides, MEL (N = 10) ([2]; melanoma, share of tumors with more than 1.5-fold higher expression than the highest-expressing relevant normal tissue, in-house RNAseq): I (<19% over-expression = I) | Target coverage for source genes of selected peptides, NHL (N = 10) ([2]; non-Hodgkin lymphoma, share of tumors with more than 1.5-fold higher expression than the highest-expressing relevant normal tissue, in-house RNAseq): I (<19% over-expression = I) | Target coverage, over-expression of source gene, pNSCLC ([2]; pNSCLC (N = 11), share of tumors with more than 1.5-fold higher expression than highest relevant normal tissue, in-house RNASeq): I (<19% over-expression = I) | Target coverage for source genes of selected peptides, PCA (n = 10) ([2]; prostate cancer and benign prostate hyperplasia, share of tumors with more than 1.5-fold higher expression than the highest-expressing relevant normal tissue, in-house RNAseq): I (<19% over-expression = I) | Target coverage for source genes of selected peptides, UBC (N = 10) ([2]; urinary bladder cancer, share of tumors with more than 1.5-fold higher expression than the highest-expressing relevant normal tissue, in-house RNAseq): I (<19% over-expression = I) | Target coverage for source genes of selected peptides, UTC (N = 10) ([2]; uterine cancer, share of tumors with more than 1.5-fold higher expression than the highest-expressing relevant normal tissue, in-house RNAseq): I (<19% over-expression = I) | Target coverage, over-expression category of source gene, BLCA (N = 408) [3]: C (>=5% of tumors above the cutoff, but <20%) | Target coverage, over-expression category of source gene, CESC (N = 307) [3]: C (>=5% of tumors above the cutoff, but <20%) | Target coverage, over-expression category of source gene, CHOL (N = 36) ([3]; Cholangiocarcinoma): C (>=5% of tumors above the cutoff, but <20%) | Target coverage, over-expression category of source gene, HNSC (N = 521) [3]: C (>=5% of tumors above the cutoff, but <20%) | Target coverage, over-expression category of source gene, LGG (N = 534) ([3]; Lower grade glioma): B (>=20% of tumors above the cutoff, but <50%)

408: peptide found in PLK4 (gene looked up) (QYASRFVQL; listed as Homo sapiens) [compound 408]
ENTITIES [1]: GC, GB, HCC, NSCLC | Target coverage, over-expression category of source gene, BLCA (N = 408) [3]: B (>=20% of tumors above the cutoff, but <50%) | Target coverage, over-expression category of source gene, CESC (N = 307) [3]: A (>=50% of tumors above the cutoff) | Target coverage, over-expression category of source gene, HNSC (N = 521) [3]: B (>=20% of tumors above the cutoff, but <50%) | Target coverage, over-expression category of source gene, DLBC (N = 48) [3]: B (>=20% of tumors above the cutoff, but <50%)

202: peptide found in ALOX15 (gene looked up) (RYVEGIVSL; listed as Homo sapiens) [compound 202]
ENTITIES [1]: NSCLC | Target coverage, over-expression category of source gene, CESC (N = 307) [3]: C (>=5% of tumors above the cutoff, but <20%)

399: peptide found in MET (gene looked up) (SYIDVLPEF; listed as Homo sapiens) [compound 399]
ENTITIES [1]: HCC, NSCLC, GC, RCC, GB, PCA | Target coverage, over-expression category of source gene, KICH (N = 66) ([3]; Kidney chromophobe): B (>=20% of tumors above the cutoff, but <50%) | Target coverage, over-expression category of source gene, KIRP (N = 291) ([3]; Kidney renal papillary cell carcinoma): A (>=50% of tumors above the cutoff) | Target coverage, over-expression category of source gene, MESO (N = 87) ([3]; Mesothelioma): C (>=5% of tumors above the cutoff, but <20%)

405: peptide found in MMP12 (gene looked up) (NYPKSIHSF; listed as Homo sapiens) [compound 405]
ENTITIES [1]: NSCLC | Target coverage, over-expression category of source gene, BLCA (N = 408) [3]: C (>=5% of tumors above the cutoff, but <20%) | Target coverage, over-expression category of source gene, CESC (N = 307) [3]: B (>=20% of tumors above the cutoff, but <50%) | Target coverage, over-expression category of source gene, HNSC (N = 521) [3]: B (>=20% of tumors above the cutoff, but <50%) | Target coverage, over-expression category of source gene, DLBC (N = 48) [3]: B (>=20% of tumors above the cutoff, but <50%)

391: peptide found in CDK1 (gene looked up) (LYQILQGIVF; listed as Homo sapiens) [compound 391]
ENTITIES [1]: NSCLC, GC, GB, RCC, HCC | Target coverage, over-expression category of source gene, ACC (N = 79) ([3]; Adrenocortical carcinoma): C (>=5% of tumors above the cutoff, but <20%) | Target coverage, over-expression category of source gene, BLCA (N = 408) [3]: B (>=20% of tumors above the cutoff, but <50%) | Target coverage, over-expression category of source gene, CESC (N = 307) [3]: A (>=50% of tumors above the cutoff) | Target coverage, over-expression category of source gene, HNSC (N = 521) [3]: B (>=20% of tumors above the cutoff, but <50%) | Target coverage, over-expression category of source gene, DLBC (N = 48) [3]: B (>=20% of tumors above the cutoff, but <50%)

— US10159726B2, “Peptides, combination of peptides and scaffolds for use in immunotherapeutic treatment of various cancers” (Immatics Biotechnologies GmbH, priority 2015, dated 2018)
